PubChem BioAssay AID224 (DTP/NCI, 2004)
The list is a part of this screen's results and no random one: it is rich in T/C values a quarter to a half above the control, in often repeated tests (any T/C) and in doses without a T/C. Other doses and runs of a compound stand elsewhere. T/C gives the treated animals as a percentage of the vehicle group. Some entries give survivors of the animals treated and no T/C: the source holds a T/C of zero for them, seemingly a mark for toxic or unscored doses. Some doses without a T/C left all or most animals alive at the check, yet need not have been tolerated: the source hardly ever lists a survival T/C far under the control, and the zero likely stands for such cases as well. Counts of survivors are from the toxicity check (mostly the fifth day) where no day follows; animals may have died later. Schedule codes are those of the source, read here as Q, the interval in days (D) or hours (H), X, the number of doses. Some schedules carry Z or #; the key to these is not given. Some structures stand for samples that the source files as different forms (salt, stereo form or complex); doses refer to the form tested. Some doses were run more than once; the values are given in rising order. For survival time, this PubChem deposit counts one and a half times the control or more as active, and values a quarter to a half above the control carry no call in these data; other NCI protocols may use other cut-offs.

System: P335 leukemia ip, BDF1 mice, survival T/C %
Test: NCI In Vivo Anticancer Drug Screen. Data for tumor model P335 Leukemia (intraperitoneal) in B6D2F1 (BDF1) mice
Settings: T/C endpoint: mean survival time, higher T/C = longer survival
Experimental: The antitumor activity of compounds was measured in mice bearing transplantable tumors. Survival or tumor size were measured and the results are expressed as the measurement made in the treated group (T) divided by the measurement made in the vehicle treated control group (C). The tumor model used in this assay is P335 Leukemia (intraperitoneal) in B6D2F1 (BDF1) mice

[1] = dose: 25.0 mg/kg/injection, schedule: Q01DX Z (ip), vehicle: carboxymethylcellulose (CMC)
[2] = dose: 50.0 mg/kg/injection, schedule: Q01DX Z (ip), vehicle: carboxymethylcellulose (CMC)
[3] = dose: 100.0 mg/kg/injection, schedule: Q01DX Z (ip), vehicle: carboxymethylcellulose (CMC)
[4] = dose: 12.5 mg/kg/injection, schedule: Q01DX Z (ip), vehicle: carboxymethylcellulose (CMC)
[5] = dose: 250.0 mg/kg/injection, schedule: Q01DX Z (ip), vehicle: carboxymethylcellulose (CMC)
[6] = dose: 500.0 mg/kg/injection, schedule: Q01DX Z (ip), vehicle: carboxymethylcellulose (CMC)
[7] = dose: 200.0 mg/kg/injection, schedule: Q01DX Z (ip), vehicle: carboxymethylcellulose (CMC)

## CC[C@H](c1ccc(O)cc1)[C@@H](CC)c1ccc(O)cc1
dose: 1.0 mg/kg/injection, schedule: Q01DX Z (sc), vehicle: steroid suspending solution
  T/C: 133 % of control
dose: 4.0 mg/kg/injection, schedule: Q01DX Z (sc), vehicle: steroid suspending solution
  T/C: 127 % of control
dose: 8.0 mg/kg/injection, schedule: Q01DX Z (sc), vehicle: steroid suspending solution
  T/C: 140 % of control

## CSCS(=O)C[C@H](CO)NC(=O)/C=C/c1c(C)[nH]c(=O)[nH]c1=O (stereo partly specified)
dose: 1.0 mg/kg/injection, schedule: Q01DX Z (ip), vehicle: saline
  survivor count: 6 of 6
dose: 2.0 mg/kg/injection, schedule: Q01DX Z (ip), vehicle: saline
  survivor count: 1 of 6
dose: 4.0 mg/kg/injection, schedule: Q01DX Z (ip), vehicle: saline
  survivor count: 0 of 6
dose: 8.0 mg/kg/injection, schedule: Q01DX Z (ip), vehicle: saline
  survivor count: 0 of 6

## COC12C(COC(N)=O)C3=C(C(=O)C(C)=C(N)C3=O)N1CC1C2N1C (stereo unspecified)
dose: 1.25 mg/kg/injection, schedule: Q01DX Z (ip), vehicle: carboxymethylcellulose (CMC)
  T/C: 137 % of control
dose: 2.5 mg/kg/injection, schedule: Q01DX Z (ip), vehicle: carboxymethylcellulose (CMC)
  T/C: 139 and 147 % of control
dose: 10.0 mg/kg/injection, schedule: Q01DX Z (ip), vehicle: carboxymethylcellulose (CMC)
  T/C: 127 % of control
dose: 20.0 mg/kg/injection, schedule: Q01DX Z (ip), vehicle: carboxymethylcellulose (CMC)
  survivor count: 6 of 6

## CCN(CC)CCNc1ccc(C)c2sc3ccccc3c(=O)c12
dose: 50.0 mg/kg/injection, schedule: Q01DX Z (ip), vehicle: methylcellulose (MC)
  survivor count: 6 of 6
dose: 200.0 mg/kg/injection, schedule: Q01DX Z (ip), vehicle: methylcellulose (MC)
  survivor count: 0 of 6

## CC(=O)Nc1ccc2nc3ccc(NC(C)=O)cc3[n+](-c3ccccc3)c2c1
[1]
  survivor count: 6 of 6
[2]
  survivor count: 5 of 6
[3]
  survivor count: 6 of 6

## CN(Cc1cnc2nc(N)nc(N)c2n1)c1c(Cl)cc(C(=O)NC(CCC(=O)O)C(=O)O)cc1Cl (stereo unspecified)
dose: 6.25 mg/kg/injection, schedule: Q01DX Z (ip), vehicle: carboxymethylcellulose (CMC)
  T/C: 126 % of control
[4]
  T/C: 132 % of control
  survivor count: 6 of 6
[2]
  T/C: 134 and 147 % of control
[3]
  survivor count: 4 of 6

## O=CCC(O)C(O)C(O)CO (stereo unspecified)
dose: 62.5 mg/kg/injection, schedule: Q01DX Z (ip), vehicle: carboxymethylcellulose (CMC)
  survivor count: 4 of 6
dose: 125.0 mg/kg/injection, schedule: Q01DX Z (ip), vehicle: carboxymethylcellulose (CMC)
  survivor count: 4 of 6
[5]
  survivor count: 6 of 6
[6]
  survivor count: 6 of 6

## CN(C)c1ccc(Nc2c3ccccc3nc3ccccc23)cc1
[1]
  survivor count: 6 of 6
[2]
  survivor count: 6 of 6
[3]
  survivor count: 5 of 6
[7]
  survivor count: 2 of 6

## O=C(Nc1ccc(C2=NCCCN2)cc1)c1ccc(C(=O)Nc2ccc(C3=NCCCN3)cc2)cc1
dose: 0.8 mg/kg/injection, schedule: Q01DX Z (ip), vehicle: water
  T/C: 130 % of control
dose: 6.3 mg/kg/injection, schedule: Q01DX Z (ip), vehicle: water
  survivor count: 5 of 6

## O=c1[nH]cc(F)c(=O)[nH]1
dose: 6.25 mg/kg/injection, schedule: Q01DX Z (ip), vehicle: saline
  T/C: 138 % of control
dose: 25.0 mg/kg/injection, schedule: Q01DX Z (ip), vehicle: saline
  T/C: 127 % of control
dose: 200.0 mg/kg/injection, schedule: Q01DX Z (ip), vehicle: saline
  survivor count: 6 of 6

## Nc1nc(=S)c2ncn(C3OC(CO)C(O)C3O)c2[nH]1 (stereo unspecified)
dose: 0.08 mg/kg/injection, schedule: Q01DX Z (ip), vehicle: carboxymethylcellulose (CMC)
  survivor count: 6 of 6

## O=C(O)CCCc1ccc(N(CCCl)CCCl)cc1
[1]
  survivor count: 2 of 6
[2]
  survivor count: 0 of 6

## CS(=O)(=O)OCCCCOS(C)(=O)=O
dose: 0.02 mg/kg/injection, schedule: Q01DX Z (ip), vehicle: methylcellulose (MC)
  survivor count: 6 of 6
dose: 3.2 mg/kg/injection, schedule: Q01DX Z (ip), vehicle: methylcellulose (MC)
  survivor count: 6 of 6
dose: 12.8 mg/kg/injection, schedule: Q01DX Z (ip), vehicle: methylcellulose (MC)
  survivor count: 6 of 6
dose: 51.2 mg/kg/injection, schedule: Q01DX Z (ip), vehicle: methylcellulose (MC)
  survivor count: 6 of 6
dose: 102.4 mg/kg/injection, schedule: Q01DX Z (ip), vehicle: methylcellulose (MC)
  survivor count: 6 of 6
dose: 204.8 mg/kg/injection, schedule: Q01DX Z (ip), vehicle: methylcellulose (MC)
  survivor count: 4 of 6

## S=c1nc[nH]c2nc[nH]c12
dose: 150.0 mg/kg/injection, schedule: Q01DX Z (ip), vehicle: other
  T/C: 137 % of control

## O=C(Nc1ccc(C2=NCCN2)cc1)c1ccc(C(=O)Nc2ccc(C3=NCCN3)cc2)c(Cl)c1
dose: 15.0 mg/kg/injection, schedule: Q01DX Z (ip), vehicle: water
  T/C: 135 % of control

## CN(C)CC(=O)c1ccc(O)c(O)c1
dose: 250.0 mg/kg/injection, schedule: Q01DX Z (ip), vehicle: saline
  survivor count: 6 of 6
dose: 1000.0 mg/kg/injection, schedule: Q01DX Z (ip), vehicle: saline
  survivor count: 1 of 6

## NC(=O)N(CCCl)N=O
dose: 0.5 mg/kg/injection, schedule: Q01DX Z (ip), vehicle: carboxymethylcellulose (CMC)
  T/C: 132 % of control
dose: 1.0 mg/kg/injection, schedule: Q01DX Z (ip), vehicle: carboxymethylcellulose (CMC)
  survivor count: 6 of 6
dose: 2.0 mg/kg/injection, schedule: Q01DX Z (ip), vehicle: carboxymethylcellulose (CMC)
  survivor count: 6 of 6
dose: 4.0 mg/kg/injection, schedule: Q01DX Z (ip), vehicle: carboxymethylcellulose (CMC)
  survivor count: 6 of 6
dose: 8.0 mg/kg/injection, schedule: Q01DX Z (ip), vehicle: carboxymethylcellulose (CMC)
  survivor count: 6 of 6

## Nc1nc2n[nH]nc2c(=O)[nH]1
dose: 25.0 mg/kg/injection, schedule: Q01DX Z (ip), vehicle: other
  T/C: 142 % of control
dose: 50.0 mg/kg/injection, schedule: Q01DX Z (ip), vehicle: other
  T/C: 142 % of control

## OCC1OC(n2cnc3c(=S)nc[nH]c32)C(O)C1O (stereo unspecified)
[5]
  survivor count: 6 of 6
[6]
  survivor count: 6 of 6

## CC[C@@H](c1ccc(O)cc1)[C@@H](CC)c1ccc(O)cc1
dose: 62.5 mg/kg/injection, schedule: Q01DX Z (sc), vehicle: steroid suspending solution
  survivor count: 6 of 6
dose: 125.0 mg/kg/injection, schedule: Q01DX Z (sc), vehicle: steroid suspending solution
  T/C: 128 % of control
dose: 250.0 mg/kg/injection, schedule: Q01DX Z (sc), vehicle: steroid suspending solution
  T/C: 128 % of control

## CCOC(N)=O
dose: 23.43 mg/kg/injection, schedule: Q01DX Z (ip), vehicle: saline
  T/C: 131 % of control
dose: 375.0 mg/kg/injection, schedule: Q01DX Z (ip), vehicle: saline
  T/C: 125 % of control
dose: 1500.0 mg/kg/injection, schedule: Q01DX Z (ip), vehicle: saline
  survivor count: 4 of 6

## CN(C)c1ccc(/C=C/c2ccnc3ccccc23)cc1
dose: 6.2 mg/kg/injection, schedule: Q01DX Z (ip), vehicle: water
  survivor count: 6 of 6
[4]
  survivor count: 6 of 6
dose: 12.5 mg/kg/injection, schedule: Q01DX Z (ip), vehicle: water
  survivor count: 6 of 6
[1]
  survivor count: 6 of 6
dose: 25.0 mg/kg/injection, schedule: Q01DX Z (ip), vehicle: water
  survivor count: 6 of 6
[2]
  survivor count: 6 of 6
[3]
  survivor count: 3 of 6 and 6 of 6
[7]
  survivor count: 1 of 6
dose: 400.0 mg/kg/injection, schedule: Q01DX Z (ip), vehicle: carboxymethylcellulose (CMC)
  survivor count: 0 of 6
